Test results reported in PubChem BioAssay (EPA / NIEHS).
Inconclusive results, whose numbers are uncertain, are shown with a selection of clear calls. For part of these data: Potencies of inconclusive entries are doubtful fits and often do not repeat. Active and inactive are the calls of the source. The calls were made as follows: active = hit-call score of the fitted dose curve at least 0.9, where 1 is the maximum; inconclusive = response in the unintended direction; inactive = score below 0.9.

Chains of the proteins cited; added tags and fusions are not shown. Lines headed by an entry give the natural chain unless they say otherwise; changes in a name come on top.
UniProt P10828: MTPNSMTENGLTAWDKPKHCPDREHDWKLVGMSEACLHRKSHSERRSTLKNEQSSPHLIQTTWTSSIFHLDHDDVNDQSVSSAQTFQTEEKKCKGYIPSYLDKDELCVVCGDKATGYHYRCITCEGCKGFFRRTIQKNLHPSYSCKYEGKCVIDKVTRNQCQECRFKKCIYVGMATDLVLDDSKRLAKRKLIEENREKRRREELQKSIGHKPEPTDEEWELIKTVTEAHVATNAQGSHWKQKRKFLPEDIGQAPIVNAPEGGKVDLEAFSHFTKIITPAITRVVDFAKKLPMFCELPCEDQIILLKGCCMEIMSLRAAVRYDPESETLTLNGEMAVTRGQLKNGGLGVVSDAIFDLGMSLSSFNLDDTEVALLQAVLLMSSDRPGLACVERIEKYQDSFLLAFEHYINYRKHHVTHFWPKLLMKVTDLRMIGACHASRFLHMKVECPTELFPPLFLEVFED
UniProt P10827: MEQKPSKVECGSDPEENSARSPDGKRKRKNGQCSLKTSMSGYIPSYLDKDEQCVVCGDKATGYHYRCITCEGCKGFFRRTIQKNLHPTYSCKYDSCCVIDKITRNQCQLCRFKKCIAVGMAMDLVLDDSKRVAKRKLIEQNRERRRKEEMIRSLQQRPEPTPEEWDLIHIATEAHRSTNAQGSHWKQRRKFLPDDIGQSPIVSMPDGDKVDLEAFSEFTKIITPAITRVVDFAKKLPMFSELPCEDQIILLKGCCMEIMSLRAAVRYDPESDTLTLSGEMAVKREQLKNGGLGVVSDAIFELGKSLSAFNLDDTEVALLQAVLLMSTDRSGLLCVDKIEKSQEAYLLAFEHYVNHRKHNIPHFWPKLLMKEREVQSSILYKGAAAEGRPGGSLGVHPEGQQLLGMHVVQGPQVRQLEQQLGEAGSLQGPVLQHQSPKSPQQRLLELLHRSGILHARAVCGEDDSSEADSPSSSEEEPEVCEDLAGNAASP
UniProt P19793: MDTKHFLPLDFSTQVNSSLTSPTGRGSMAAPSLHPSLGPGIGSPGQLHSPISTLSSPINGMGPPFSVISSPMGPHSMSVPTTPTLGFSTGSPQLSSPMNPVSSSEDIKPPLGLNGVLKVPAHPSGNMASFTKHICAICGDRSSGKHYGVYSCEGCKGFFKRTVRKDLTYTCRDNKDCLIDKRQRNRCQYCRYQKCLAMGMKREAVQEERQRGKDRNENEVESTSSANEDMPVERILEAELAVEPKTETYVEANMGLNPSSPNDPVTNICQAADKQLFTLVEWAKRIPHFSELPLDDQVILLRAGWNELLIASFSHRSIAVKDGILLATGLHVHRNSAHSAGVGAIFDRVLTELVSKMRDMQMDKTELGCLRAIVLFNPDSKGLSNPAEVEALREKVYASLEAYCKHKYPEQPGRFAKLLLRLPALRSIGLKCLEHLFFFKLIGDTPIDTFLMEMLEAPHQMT

Key:
[1] = CCTE_Simmons_CellTiterGLO_HEK293T: Viability Assessment in CCTE's Assays for Thyroperoxidase (TPO) Inhibition, Simmons Lab (AID 2283665);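 also: cells exposed to compound for 24 h before readout; actives reduce ATP signal below DMSO vehicle meaning cytotoxicity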
In short: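 Cells were seeded overnight, then exposed to an eight-point series up to 87.5 uM final for 24 hours. CellTiter-Glo reagent was added and luminescence read after 20 min, giving ATP-based viability versus DMSO.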

[2] = TOX21_p53_BLA_p5_viability: Viability Assessment in the Tox21 HCT-116 p53 Agonism Beta-lactamase Assay, Phase 5 (AID 2283600)
In short: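 Decreased CellTiter-Glo luminescence denotes lost viability. Exposure: 16 h at 37C, 5% CO2, with compounds from DMSO stocks diluted 217-fold in wells of 4000 cells.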

[3] = target: Thyroid hormone receptor alpha (Rattus norvegicus) + Thyroid hormone receptor beta (Rattus norvegicus) (UniProt P18113+P63059); assay: TOX21_TR_LUC_GH3_Agonist_Followup: Tox21 GH3 Thyroid Hormone Receptor Agonism Luciferase Follow-Up Assay (AID 2283939)
In short: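 Agonist-mode confirmatory run: 15 concentrations (5 nM to 92 uM final) on GH3 rat pituitary cells, 24 h at 37C/5% CO2, T3 as positive control. Luminescence read with ONE-Glo after 30 min.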

THRB (gene 7068) = THRB (gene 7068) (UniProt P10828); assay: TOX21_TRB_BLA_Agonist_Followup_ratio: Tox21 Thyroid Hormone Receptor beta Agonism Beta-lactamase (BLA) Follow-Up Assay, Ratio (AID 2283954)
In short: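 Agonist mode: compounds (11-point, triplicate) incubated 18 h with HEK293T cells carrying GAL4-DBD/human TRβ-LBD and UAS-β-lactamase. Blue/green (460/530 nm) FRET ratio read after 2 h CCF4-AM loading; CellTiter-Glo viability run in the same plates.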

[4] = TOX21_PR_BLA_Followup_Antagonist_viability: Viability Assessment in the Tox21 HEK293 Progesterone Receptor (PR) Antagonism Beta-lactamase Follow-Up Assay (AID 2283936);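 also: cells exposed to compound with R5020 agonist for 16 h; hits lower the luminescence signal meaning cytotoxicity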
In short: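 PR-UAS-bla HEK293T cells in medium with 2% charcoal-stripped FBS were treated with compounds plus R5020 for 16 hr at 37C. After the beta-lactamase read, CellTiter-Glo was added to the same wells and luminescence read after 30 min at room temperature.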

[5] = TOX21_PR_LUC_Followup_Antagonist_viability: Viability Assessment in the Tox21 HEK293 Progesterone Receptor (PR) Antagonism Luciferase Follow-Up Assay (AID 2283940)
In short: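 HEK293-PR-A-luc, 3,000 cells/well; 5 h at 37C/0% CO2; compound pin transfer; 16 h incubation; CellTiter-Glo ATP luminescence, signal loss = cytotoxicity.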

[6] = TOX21_PR_LUC_Followup_Agonist_viability: Viability Assessment in the Tox21 HEK293 Progesterone Receptor (PR) Agonism Luciferase Follow-Up Assay (AID 2283941);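 also: loss of signal means cytotoxicity so actives lower viability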
In short: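 Multiplexed viability endpoint of the PR agonist luciferase follow-up: HEK293-PR-A-luc cells treated 16 h at 37C, with viability scored as decrease in CellTiter-Glo ATP signal.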

THRA (gene 7067) = THRA (gene 7067) (UniProt P10827); assay: TOX21_TRA_COA_Antagonist_Followup_ratio: Tox21 Thyroid Hormone Receptor alpha Antagonism through Coactivator Recruitment Follow-Up Assay, Ratio (AID 2283953)
In short: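 GST-TRα LBD 2.5 nM, BSA 0.10%, + cpd; then FITC-SRC-2 peptide 200 nM + Tb-anti-GST Ab 2 nM. TR-FRET ratio 520/495 nm. Norm: DMSO = 0%, T3 = 100%.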

[7] = TOX21_TRB_BLA_Antagonist_Followup_viability: Viability Assessment in the Tox21 Thyroid Hormone Receptor beta Antagonism Beta-lactamase (BLA) Follow-Up Assay (AID 2283961)
In short: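 HEK293T cells with GAL4-human TRβ LBD and UAS-bla reporter, 3,000 cells/well in 2% charcoal-stripped FBS medium; 11-point concentrations in triplicate, 18 h at 37C. Viability from ATP by CellTiter-Glo luminescence, 30 min RT, same plates.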

[8] = target: Retinoic acid receptor RXR-alpha (Homo sapiens) (UniProt P19793); assay: TOX21_TR_RXR_BLA_Antagonist_Followup_ratio: Tox21 Thyroid Hormone Receptor beta Retinoid X Receptor alpha (RXRa) Antagonism Beta-lactamase (BLA) Follow-Up Assay, Ratio (AID 2283972)
In short: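 RXRa-UAS-bla HEK293T cells, 2,500/well in phenol red-free DMEM with 2% charcoal-stripped FBS, 5 h attachment, then compounds (11 concentrations, triplicate) for 16 h at 37C; FRET-B/GCCF4-AM substrate 2 h RT; 460:530 nm ratio, loss of signal vs DMSO.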

In the case of `Cn1c(=S)[nH]c2ccccc21`, the AC50 [1] is reported as inconclusive: 53.6 µM.

For `COc1cc(/C=C/c2ccccc2)oc(=O)c1`, the AC50 [2] was inconclusive: 47.4 µM.

In the case of `C=C(NC(=O)C(=C)NC(=O)c1csc(C2=NC3c4csc(n4)C4NC(=O)c5csc(n5)C(C(C)(O)C(C)O)NC(=O)C5CSC(=N5)/C(=C/C)NC(=O)C(C(C)O)NC(=O)c5csc(n5)C3(CC2)NC(=O)C(C)NC(=O)C(=C)NC(=O)C(C)NC(=O)C(C(C)CC)NC2C=Cc3c(C(C)O)cc(nc3C2O)C(=O)OC4C)n1)C(N)=O` (stereo not given), the AC50 [3] is reported as active: 2.47 µM and the AC50 (THRB (gene 7068)) is reported as inconclusive: 8.56 µM.

With `CCCCCCCCCCCCCCCC(=O)OC[C@H](COP(=O)([O-])OCC[N+](C)(C)C)OC(=O)CCCCCCCCCCCCCCC` the AC50 [2] was inconclusive: 23 µM.

In the case of `COc1c[nH]ccc1=O`, the AC50 [1] is reported as inconclusive: 0.0138 µM.

With `C/C=C1\C(=O)C[C@H]2[C@@H]3CCC4=CC(=O)CC[C@]4(C)[C@H]3CC[C@]12C` the AC50 [4] was inconclusive: 0.000579 µM.

For `CC1(C)OC(=O)Nc2ccc(Br)cc21`, the AC50 [5] was inconclusive: 23 µM and the AC50 [6] was inconclusive: 23 µM.

With `C/C=C(/C(=C/C)c1ccc(OC(C)=O)cc1)c1ccc(OC(C)=O)cc1` the AC50 [6] was inconclusive: 0.000106 µM.

In the case of `Cc1nc2ccc(CN(C)c3ccc(C(=O)N[C@@H](CCC(=O)O)C(=O)O)s3)cc2c(=O)[nH]1`, the AC50 (THRA (gene 7067)) is reported as inconclusive: 19.2 µM, the AC50 [7] is reported as inconclusive: 19.2 µM and the AC50 [8] is reported as inconclusive: 19.2 µM.

In the case of `O=C(O)c1cc(-c2ccc(F)cc2F)ccc1O`, the AC50 [2] is reported as inconclusive: 10.3 µM.

In the case of `CC(=O)Nc1ccccc1C`, the AC50 [2] is reported as inconclusive: 58.9 µM.
